Assay results reported in the supplement of paper PMC12067093, “Discovery and optimisation of a covalent ligand for TRIM25 and its application to targeted protein ubiquitination” (Chemical Science, 2025).
This is one part of the list.

By UniProt entry, the sequences of proteins in these tests, tags left out. Where a name states a change or a piece, a line headed by the entry shows the natural chain unless it says otherwise.
UniProt Q6ZS81: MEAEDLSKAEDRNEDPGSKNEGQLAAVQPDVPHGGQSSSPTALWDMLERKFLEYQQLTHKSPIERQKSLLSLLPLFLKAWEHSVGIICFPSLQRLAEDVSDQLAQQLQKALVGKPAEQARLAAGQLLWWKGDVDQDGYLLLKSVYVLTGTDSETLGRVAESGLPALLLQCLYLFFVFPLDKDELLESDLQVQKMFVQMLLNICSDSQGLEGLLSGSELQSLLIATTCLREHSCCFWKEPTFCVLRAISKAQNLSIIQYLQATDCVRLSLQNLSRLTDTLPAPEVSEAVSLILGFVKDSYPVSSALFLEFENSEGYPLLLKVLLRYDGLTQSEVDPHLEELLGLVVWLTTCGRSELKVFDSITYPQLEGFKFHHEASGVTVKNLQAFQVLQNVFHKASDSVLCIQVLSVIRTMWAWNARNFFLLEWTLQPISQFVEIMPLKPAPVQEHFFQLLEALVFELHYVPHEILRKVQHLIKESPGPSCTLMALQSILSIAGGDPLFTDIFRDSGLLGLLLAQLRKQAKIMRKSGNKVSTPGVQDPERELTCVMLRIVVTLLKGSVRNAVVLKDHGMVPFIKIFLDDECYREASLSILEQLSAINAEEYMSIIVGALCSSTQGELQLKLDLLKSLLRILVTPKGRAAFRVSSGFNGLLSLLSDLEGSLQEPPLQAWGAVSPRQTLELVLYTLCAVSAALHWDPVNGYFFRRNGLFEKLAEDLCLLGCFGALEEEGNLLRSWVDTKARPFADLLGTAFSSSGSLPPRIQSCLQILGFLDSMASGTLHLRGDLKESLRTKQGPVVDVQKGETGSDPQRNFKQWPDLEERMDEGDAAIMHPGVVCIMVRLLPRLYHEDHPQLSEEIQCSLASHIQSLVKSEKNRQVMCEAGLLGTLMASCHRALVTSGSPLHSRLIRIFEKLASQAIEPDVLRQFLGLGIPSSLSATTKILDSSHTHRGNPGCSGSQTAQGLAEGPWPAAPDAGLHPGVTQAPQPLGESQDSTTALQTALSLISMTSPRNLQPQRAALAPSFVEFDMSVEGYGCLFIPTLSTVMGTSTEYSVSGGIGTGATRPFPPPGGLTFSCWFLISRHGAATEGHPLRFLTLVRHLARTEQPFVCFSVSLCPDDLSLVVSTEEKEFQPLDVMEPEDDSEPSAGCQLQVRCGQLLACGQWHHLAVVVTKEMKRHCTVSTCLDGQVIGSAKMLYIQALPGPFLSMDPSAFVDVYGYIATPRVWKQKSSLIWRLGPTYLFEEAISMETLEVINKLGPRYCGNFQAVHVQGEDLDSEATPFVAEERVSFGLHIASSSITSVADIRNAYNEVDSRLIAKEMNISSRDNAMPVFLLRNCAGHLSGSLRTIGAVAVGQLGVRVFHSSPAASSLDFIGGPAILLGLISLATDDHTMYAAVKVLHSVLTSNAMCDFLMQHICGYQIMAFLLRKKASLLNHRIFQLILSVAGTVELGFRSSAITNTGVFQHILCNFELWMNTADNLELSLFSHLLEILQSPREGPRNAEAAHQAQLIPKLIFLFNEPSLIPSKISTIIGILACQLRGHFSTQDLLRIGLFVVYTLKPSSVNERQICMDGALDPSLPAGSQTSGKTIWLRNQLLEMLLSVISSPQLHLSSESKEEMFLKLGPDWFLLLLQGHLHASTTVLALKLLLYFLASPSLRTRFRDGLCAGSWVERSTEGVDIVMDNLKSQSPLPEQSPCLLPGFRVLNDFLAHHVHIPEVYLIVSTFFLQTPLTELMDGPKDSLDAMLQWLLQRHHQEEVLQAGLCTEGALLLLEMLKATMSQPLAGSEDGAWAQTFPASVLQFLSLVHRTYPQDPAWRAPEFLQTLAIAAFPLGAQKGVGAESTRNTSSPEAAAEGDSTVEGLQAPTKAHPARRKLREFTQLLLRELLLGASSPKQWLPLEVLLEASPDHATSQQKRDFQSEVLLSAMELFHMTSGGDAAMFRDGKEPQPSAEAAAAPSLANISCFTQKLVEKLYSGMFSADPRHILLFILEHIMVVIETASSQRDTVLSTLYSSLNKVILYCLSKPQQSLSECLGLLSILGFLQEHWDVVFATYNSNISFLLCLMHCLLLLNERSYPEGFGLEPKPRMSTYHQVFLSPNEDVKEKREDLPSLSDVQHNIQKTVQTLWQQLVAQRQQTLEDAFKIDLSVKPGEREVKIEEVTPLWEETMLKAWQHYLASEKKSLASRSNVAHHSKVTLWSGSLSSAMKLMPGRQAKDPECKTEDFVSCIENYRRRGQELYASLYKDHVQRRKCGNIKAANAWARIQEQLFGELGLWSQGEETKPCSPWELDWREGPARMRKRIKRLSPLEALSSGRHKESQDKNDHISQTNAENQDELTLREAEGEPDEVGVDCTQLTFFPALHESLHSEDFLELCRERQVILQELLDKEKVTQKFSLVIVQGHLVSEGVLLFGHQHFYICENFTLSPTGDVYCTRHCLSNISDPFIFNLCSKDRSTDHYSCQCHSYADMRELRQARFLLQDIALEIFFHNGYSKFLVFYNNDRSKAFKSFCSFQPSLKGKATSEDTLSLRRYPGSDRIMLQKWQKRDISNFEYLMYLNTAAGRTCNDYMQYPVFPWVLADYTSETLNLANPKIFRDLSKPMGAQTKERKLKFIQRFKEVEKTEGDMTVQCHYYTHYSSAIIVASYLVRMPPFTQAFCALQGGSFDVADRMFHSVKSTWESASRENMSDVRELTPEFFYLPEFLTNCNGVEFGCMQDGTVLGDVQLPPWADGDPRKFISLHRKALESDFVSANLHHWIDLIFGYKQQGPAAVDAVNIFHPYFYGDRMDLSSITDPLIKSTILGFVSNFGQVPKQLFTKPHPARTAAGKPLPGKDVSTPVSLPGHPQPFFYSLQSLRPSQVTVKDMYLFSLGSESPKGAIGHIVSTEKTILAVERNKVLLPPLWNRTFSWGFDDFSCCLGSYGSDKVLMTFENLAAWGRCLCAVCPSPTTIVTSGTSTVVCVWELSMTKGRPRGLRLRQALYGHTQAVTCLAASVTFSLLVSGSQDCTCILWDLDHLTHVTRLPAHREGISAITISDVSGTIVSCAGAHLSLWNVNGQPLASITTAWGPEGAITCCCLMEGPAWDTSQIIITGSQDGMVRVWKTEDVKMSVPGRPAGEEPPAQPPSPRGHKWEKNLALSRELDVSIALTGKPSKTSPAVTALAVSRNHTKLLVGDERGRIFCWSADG
UniProt Q9BZH6: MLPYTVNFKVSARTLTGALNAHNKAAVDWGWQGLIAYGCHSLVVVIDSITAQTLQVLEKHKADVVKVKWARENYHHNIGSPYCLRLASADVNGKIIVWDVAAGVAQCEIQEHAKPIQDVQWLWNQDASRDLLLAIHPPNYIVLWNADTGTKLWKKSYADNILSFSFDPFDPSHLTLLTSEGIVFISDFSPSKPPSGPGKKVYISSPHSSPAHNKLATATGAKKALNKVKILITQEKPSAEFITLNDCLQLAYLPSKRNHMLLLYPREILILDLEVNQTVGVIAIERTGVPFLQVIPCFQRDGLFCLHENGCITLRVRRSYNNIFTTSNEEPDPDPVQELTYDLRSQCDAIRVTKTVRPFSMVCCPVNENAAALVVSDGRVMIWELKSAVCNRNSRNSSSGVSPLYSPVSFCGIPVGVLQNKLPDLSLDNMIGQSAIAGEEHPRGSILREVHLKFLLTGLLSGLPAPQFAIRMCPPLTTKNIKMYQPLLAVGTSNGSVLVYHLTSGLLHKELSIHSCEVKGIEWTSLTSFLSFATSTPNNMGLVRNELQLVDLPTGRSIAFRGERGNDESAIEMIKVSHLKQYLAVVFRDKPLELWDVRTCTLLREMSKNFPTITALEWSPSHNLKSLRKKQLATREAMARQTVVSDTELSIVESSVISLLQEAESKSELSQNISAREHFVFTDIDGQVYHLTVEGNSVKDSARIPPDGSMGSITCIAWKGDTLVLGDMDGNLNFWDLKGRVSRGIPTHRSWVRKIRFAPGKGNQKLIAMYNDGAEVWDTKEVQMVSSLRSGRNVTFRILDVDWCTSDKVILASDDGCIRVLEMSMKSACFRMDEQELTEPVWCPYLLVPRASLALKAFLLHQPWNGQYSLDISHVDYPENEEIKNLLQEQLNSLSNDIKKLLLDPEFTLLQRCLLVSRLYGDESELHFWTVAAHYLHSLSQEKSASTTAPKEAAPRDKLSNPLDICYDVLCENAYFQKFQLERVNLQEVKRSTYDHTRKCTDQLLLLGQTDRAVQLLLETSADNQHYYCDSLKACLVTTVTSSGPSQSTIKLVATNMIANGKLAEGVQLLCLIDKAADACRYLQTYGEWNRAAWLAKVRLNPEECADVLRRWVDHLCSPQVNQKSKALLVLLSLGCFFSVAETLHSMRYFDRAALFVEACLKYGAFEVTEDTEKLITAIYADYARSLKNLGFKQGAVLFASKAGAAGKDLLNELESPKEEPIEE
UniProt Q9Y4E6, whole entry, looked up: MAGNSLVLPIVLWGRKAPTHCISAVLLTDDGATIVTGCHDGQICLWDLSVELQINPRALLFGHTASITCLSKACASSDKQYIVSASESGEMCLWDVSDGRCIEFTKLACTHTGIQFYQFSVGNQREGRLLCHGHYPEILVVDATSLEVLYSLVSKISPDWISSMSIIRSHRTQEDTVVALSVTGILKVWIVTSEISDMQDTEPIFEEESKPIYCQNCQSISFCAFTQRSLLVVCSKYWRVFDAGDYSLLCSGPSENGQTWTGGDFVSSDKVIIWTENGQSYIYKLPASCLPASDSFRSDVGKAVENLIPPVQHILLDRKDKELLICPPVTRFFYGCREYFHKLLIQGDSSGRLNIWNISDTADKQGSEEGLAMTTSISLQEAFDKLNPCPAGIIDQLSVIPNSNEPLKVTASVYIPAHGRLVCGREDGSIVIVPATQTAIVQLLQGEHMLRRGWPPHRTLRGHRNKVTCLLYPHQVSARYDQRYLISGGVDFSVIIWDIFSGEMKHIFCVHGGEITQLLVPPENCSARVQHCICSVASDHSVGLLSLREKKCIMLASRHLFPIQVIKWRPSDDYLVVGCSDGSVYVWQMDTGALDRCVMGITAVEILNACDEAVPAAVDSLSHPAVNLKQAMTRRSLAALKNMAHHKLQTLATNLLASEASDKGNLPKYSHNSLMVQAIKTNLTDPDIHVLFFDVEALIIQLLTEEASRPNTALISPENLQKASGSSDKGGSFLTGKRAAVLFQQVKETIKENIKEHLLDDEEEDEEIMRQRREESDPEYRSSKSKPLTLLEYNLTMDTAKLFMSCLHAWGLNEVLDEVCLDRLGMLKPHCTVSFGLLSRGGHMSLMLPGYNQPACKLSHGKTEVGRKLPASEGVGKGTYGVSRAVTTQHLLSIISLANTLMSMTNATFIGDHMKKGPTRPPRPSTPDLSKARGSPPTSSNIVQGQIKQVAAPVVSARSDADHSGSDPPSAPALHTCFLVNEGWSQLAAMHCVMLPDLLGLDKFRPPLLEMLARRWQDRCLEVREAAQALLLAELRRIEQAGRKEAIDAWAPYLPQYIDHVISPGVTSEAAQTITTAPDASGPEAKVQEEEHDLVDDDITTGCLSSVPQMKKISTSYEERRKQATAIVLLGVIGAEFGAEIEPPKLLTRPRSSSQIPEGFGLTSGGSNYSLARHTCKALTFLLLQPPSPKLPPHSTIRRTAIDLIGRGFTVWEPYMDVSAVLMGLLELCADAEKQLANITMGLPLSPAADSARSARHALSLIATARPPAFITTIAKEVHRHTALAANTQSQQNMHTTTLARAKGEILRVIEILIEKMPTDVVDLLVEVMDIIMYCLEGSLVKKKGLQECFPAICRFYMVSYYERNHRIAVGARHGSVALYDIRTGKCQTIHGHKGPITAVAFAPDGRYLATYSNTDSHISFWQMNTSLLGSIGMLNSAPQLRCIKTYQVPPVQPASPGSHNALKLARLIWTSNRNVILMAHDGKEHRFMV
UniProt Q9H7D7: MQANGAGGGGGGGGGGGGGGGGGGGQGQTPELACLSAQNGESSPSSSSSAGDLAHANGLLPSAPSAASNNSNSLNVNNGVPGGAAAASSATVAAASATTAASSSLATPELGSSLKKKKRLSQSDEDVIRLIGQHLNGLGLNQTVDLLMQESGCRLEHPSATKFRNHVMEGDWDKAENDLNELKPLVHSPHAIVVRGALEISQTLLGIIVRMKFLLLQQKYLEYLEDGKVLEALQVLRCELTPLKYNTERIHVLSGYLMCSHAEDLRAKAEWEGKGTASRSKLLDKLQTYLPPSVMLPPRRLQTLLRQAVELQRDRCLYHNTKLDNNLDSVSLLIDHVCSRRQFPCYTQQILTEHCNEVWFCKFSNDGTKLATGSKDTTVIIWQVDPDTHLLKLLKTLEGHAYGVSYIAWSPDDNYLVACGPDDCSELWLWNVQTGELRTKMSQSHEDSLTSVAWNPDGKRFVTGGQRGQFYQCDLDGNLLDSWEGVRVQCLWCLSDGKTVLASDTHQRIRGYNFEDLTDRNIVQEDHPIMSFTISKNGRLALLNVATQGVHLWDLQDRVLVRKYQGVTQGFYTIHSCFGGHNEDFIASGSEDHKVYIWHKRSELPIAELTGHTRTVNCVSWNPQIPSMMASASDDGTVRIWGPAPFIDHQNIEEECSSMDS

Compound: CC1Cc2ccccc2N1C(=O)C1CCCN(C1)C(=O)CCl (mixture of isomers) [TRIM25 ligand 11 (diastereomer mixture)]
Test: probe-labelled cysteine peptide fold change vs DMSO (competition) (log2 fold change); higher = less target engagement (more negative = stronger competition)
Conditions: THP-1, incubation time: 4 h
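Further: competitive chemoproteomic profiling in live THP-1 cells with an iodoacetamide desthiobiotin (IA-DTB) probe, comparing probe-labelled peptide intensities in compound-treated cells against DMSO-treated controls.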

## XIAP_P98170_90_KVSPNCR (UniProt P98170)
10 µM
  probe-labelled cysteine peptide fold change: -0.0478
50 µM
  probe-labelled cysteine peptide fold change: -0.0535

## WDFY4_Q6ZS81_835_MDEGDAAIMHPGVVCIMVR (UniProt Q6ZS81)
10 µM
  probe-labelled cysteine peptide fold change: -0.0349
50 µM
  probe-labelled cysteine peptide fold change: -0.194

## WDR11_Q9BZH6_83_ENYHHNIGSPYCLR (UniProt Q9BZH6)
10 µM
  probe-labelled cysteine peptide fold change: -0.00383
50 µM
  probe-labelled cysteine peptide fold change: 0.0058

## WDR59_Q6PJI9_163_NANCLATSHDGDVR (UniProt Q6PJI9)
10 µM
  probe-labelled cysteine peptide fold change: 0.139
50 µM
  probe-labelled cysteine peptide fold change: -0.0111

## WDR7_Q9Y4E6_109_LACTHTGIQFYQFSVGNQR (UniProt Q9Y4E6)
10 µM
  probe-labelled cysteine peptide fold change: 0.0367
50 µM
  probe-labelled cysteine peptide fold change: 0.174

## WDR7_Q9Y4E6_326_ELLICPPVTR (UniProt Q9Y4E6)
10 µM
  probe-labelled cysteine peptide fold change: 0.0845
50 µM
  probe-labelled cysteine peptide fold change: 0.185

## WDFY4_Q6ZS81_2283_IQEQLFGELGLWSQGEETKPCSPWELDWR (UniProt Q6ZS81)
10 µM
  probe-labelled cysteine peptide fold change: 0.33
50 µM
  probe-labelled cysteine peptide fold change: -0.324

## XPC_Q01831_790_KLDIDCVQAITGFDFHGGYSHPVTDGYIVCEEFK (UniProt Q01831)
10 µM
  probe-labelled cysteine peptide fold change: 0.111
50 µM
  probe-labelled cysteine peptide fold change: 0.0383

## WDR5_P61964_205_IWDTASGQCLK (UniProt P61964)
10 µM
  probe-labelled cysteine peptide fold change: -0.0683
50 µM
  probe-labelled cysteine peptide fold change: 0.0111

## WDR77_Q9BQA1_172_AHAAQVTCVAASPHK (UniProt Q9BQA1)
10 µM
  probe-labelled cysteine peptide fold change: 0.0954
50 µM
  probe-labelled cysteine peptide fold change: 0.187

## WDR7_Q9Y4E6_469_VTCLLYPHQVSAR (UniProt Q9Y4E6)
10 µM
  probe-labelled cysteine peptide fold change: 0.0898
50 µM
  probe-labelled cysteine peptide fold change: -0.00299

## WDFY3_Q8IZQ1_16_QEECSPQDNALGLMHLR (UniProt Q8IZQ1)
10 µM
  probe-labelled cysteine peptide fold change: 0.018
50 µM
  probe-labelled cysteine peptide fold change: -0.149

## WDR76_Q9H967_66_VYLAPFSLSNYQLDQLMCPK (UniProt Q9H967)
10 µM
  probe-labelled cysteine peptide fold change: -0.196
50 µM
  probe-labelled cysteine peptide fold change: -0.0397

## WDR26_Q9H7D7_338_LDNNLDSVSLLIDHVCSR (UniProt Q9H7D7)
10 µM
  probe-labelled cysteine peptide fold change: -0.068
50 µM
  probe-labelled cysteine peptide fold change: 0.135
